Assay results: the supplement of paper PMC11732987, “Enantioselective OTUD7B fragment discovery through chemoproteomics screening and high-throughput optimisation” (Communications Chemistry, 2025)
The other results are listed elsewhere or left out. The data scatter; read single values as rough.

Amino acid sequences for entries named in this document (tags omitted). A change or cut given only in a name is not applied to a line headed by its entry. Residues count along the entry.
UniProt P10301: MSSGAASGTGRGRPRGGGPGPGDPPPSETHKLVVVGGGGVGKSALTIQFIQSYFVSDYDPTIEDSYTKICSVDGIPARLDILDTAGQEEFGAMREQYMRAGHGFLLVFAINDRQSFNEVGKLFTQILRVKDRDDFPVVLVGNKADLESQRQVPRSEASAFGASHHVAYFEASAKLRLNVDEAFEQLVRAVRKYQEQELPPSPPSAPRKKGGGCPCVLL
UniProt O15541: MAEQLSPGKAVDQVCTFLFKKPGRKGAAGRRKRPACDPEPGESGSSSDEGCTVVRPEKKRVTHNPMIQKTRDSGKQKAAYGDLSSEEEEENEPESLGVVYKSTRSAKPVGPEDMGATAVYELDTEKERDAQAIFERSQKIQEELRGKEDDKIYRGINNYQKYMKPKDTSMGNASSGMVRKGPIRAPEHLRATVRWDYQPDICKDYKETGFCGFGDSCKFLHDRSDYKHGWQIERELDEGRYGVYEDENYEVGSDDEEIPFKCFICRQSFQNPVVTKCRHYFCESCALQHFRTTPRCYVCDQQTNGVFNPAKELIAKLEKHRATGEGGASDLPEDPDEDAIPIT
UniProt Q8IXW5, whole entry, looked up: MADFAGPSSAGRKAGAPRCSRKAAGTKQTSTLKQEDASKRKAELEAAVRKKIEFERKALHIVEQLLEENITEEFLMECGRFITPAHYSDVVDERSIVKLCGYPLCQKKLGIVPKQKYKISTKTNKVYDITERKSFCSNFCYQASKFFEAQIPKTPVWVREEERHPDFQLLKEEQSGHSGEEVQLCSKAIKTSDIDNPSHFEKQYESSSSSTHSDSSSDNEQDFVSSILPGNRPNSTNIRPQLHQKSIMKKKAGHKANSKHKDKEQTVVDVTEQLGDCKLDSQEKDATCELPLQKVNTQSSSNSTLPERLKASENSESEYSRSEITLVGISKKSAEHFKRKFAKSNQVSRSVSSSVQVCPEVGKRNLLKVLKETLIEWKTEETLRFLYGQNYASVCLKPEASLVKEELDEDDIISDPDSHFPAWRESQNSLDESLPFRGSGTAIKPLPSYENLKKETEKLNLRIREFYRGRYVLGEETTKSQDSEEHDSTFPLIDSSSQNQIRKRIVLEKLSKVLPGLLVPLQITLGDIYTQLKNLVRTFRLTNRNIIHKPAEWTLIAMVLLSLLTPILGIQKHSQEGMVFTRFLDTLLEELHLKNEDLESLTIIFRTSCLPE
UniProt Q9BST9: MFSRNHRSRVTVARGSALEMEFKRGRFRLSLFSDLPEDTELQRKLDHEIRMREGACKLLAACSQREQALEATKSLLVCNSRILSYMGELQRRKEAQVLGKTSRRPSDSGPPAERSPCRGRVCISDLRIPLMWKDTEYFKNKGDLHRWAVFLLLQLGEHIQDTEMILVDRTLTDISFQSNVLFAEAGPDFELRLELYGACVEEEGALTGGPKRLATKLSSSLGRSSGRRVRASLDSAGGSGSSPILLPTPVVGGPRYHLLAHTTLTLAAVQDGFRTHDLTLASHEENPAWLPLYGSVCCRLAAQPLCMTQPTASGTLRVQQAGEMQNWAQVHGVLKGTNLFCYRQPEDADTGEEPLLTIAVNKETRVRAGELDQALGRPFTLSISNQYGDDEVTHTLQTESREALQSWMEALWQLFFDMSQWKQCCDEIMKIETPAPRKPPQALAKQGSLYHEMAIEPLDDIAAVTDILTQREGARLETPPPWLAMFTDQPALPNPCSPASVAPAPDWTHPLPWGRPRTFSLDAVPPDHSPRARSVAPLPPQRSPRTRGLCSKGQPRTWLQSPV
UniProt P62070: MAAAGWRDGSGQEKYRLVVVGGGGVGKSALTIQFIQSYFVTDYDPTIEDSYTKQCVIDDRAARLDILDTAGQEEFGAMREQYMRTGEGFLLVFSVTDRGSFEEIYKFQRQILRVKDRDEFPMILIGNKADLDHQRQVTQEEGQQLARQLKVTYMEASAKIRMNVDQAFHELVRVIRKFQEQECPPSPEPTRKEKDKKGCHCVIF
UniProt O00442, 61-83: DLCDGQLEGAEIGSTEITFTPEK
UniProt Q9NZJ4: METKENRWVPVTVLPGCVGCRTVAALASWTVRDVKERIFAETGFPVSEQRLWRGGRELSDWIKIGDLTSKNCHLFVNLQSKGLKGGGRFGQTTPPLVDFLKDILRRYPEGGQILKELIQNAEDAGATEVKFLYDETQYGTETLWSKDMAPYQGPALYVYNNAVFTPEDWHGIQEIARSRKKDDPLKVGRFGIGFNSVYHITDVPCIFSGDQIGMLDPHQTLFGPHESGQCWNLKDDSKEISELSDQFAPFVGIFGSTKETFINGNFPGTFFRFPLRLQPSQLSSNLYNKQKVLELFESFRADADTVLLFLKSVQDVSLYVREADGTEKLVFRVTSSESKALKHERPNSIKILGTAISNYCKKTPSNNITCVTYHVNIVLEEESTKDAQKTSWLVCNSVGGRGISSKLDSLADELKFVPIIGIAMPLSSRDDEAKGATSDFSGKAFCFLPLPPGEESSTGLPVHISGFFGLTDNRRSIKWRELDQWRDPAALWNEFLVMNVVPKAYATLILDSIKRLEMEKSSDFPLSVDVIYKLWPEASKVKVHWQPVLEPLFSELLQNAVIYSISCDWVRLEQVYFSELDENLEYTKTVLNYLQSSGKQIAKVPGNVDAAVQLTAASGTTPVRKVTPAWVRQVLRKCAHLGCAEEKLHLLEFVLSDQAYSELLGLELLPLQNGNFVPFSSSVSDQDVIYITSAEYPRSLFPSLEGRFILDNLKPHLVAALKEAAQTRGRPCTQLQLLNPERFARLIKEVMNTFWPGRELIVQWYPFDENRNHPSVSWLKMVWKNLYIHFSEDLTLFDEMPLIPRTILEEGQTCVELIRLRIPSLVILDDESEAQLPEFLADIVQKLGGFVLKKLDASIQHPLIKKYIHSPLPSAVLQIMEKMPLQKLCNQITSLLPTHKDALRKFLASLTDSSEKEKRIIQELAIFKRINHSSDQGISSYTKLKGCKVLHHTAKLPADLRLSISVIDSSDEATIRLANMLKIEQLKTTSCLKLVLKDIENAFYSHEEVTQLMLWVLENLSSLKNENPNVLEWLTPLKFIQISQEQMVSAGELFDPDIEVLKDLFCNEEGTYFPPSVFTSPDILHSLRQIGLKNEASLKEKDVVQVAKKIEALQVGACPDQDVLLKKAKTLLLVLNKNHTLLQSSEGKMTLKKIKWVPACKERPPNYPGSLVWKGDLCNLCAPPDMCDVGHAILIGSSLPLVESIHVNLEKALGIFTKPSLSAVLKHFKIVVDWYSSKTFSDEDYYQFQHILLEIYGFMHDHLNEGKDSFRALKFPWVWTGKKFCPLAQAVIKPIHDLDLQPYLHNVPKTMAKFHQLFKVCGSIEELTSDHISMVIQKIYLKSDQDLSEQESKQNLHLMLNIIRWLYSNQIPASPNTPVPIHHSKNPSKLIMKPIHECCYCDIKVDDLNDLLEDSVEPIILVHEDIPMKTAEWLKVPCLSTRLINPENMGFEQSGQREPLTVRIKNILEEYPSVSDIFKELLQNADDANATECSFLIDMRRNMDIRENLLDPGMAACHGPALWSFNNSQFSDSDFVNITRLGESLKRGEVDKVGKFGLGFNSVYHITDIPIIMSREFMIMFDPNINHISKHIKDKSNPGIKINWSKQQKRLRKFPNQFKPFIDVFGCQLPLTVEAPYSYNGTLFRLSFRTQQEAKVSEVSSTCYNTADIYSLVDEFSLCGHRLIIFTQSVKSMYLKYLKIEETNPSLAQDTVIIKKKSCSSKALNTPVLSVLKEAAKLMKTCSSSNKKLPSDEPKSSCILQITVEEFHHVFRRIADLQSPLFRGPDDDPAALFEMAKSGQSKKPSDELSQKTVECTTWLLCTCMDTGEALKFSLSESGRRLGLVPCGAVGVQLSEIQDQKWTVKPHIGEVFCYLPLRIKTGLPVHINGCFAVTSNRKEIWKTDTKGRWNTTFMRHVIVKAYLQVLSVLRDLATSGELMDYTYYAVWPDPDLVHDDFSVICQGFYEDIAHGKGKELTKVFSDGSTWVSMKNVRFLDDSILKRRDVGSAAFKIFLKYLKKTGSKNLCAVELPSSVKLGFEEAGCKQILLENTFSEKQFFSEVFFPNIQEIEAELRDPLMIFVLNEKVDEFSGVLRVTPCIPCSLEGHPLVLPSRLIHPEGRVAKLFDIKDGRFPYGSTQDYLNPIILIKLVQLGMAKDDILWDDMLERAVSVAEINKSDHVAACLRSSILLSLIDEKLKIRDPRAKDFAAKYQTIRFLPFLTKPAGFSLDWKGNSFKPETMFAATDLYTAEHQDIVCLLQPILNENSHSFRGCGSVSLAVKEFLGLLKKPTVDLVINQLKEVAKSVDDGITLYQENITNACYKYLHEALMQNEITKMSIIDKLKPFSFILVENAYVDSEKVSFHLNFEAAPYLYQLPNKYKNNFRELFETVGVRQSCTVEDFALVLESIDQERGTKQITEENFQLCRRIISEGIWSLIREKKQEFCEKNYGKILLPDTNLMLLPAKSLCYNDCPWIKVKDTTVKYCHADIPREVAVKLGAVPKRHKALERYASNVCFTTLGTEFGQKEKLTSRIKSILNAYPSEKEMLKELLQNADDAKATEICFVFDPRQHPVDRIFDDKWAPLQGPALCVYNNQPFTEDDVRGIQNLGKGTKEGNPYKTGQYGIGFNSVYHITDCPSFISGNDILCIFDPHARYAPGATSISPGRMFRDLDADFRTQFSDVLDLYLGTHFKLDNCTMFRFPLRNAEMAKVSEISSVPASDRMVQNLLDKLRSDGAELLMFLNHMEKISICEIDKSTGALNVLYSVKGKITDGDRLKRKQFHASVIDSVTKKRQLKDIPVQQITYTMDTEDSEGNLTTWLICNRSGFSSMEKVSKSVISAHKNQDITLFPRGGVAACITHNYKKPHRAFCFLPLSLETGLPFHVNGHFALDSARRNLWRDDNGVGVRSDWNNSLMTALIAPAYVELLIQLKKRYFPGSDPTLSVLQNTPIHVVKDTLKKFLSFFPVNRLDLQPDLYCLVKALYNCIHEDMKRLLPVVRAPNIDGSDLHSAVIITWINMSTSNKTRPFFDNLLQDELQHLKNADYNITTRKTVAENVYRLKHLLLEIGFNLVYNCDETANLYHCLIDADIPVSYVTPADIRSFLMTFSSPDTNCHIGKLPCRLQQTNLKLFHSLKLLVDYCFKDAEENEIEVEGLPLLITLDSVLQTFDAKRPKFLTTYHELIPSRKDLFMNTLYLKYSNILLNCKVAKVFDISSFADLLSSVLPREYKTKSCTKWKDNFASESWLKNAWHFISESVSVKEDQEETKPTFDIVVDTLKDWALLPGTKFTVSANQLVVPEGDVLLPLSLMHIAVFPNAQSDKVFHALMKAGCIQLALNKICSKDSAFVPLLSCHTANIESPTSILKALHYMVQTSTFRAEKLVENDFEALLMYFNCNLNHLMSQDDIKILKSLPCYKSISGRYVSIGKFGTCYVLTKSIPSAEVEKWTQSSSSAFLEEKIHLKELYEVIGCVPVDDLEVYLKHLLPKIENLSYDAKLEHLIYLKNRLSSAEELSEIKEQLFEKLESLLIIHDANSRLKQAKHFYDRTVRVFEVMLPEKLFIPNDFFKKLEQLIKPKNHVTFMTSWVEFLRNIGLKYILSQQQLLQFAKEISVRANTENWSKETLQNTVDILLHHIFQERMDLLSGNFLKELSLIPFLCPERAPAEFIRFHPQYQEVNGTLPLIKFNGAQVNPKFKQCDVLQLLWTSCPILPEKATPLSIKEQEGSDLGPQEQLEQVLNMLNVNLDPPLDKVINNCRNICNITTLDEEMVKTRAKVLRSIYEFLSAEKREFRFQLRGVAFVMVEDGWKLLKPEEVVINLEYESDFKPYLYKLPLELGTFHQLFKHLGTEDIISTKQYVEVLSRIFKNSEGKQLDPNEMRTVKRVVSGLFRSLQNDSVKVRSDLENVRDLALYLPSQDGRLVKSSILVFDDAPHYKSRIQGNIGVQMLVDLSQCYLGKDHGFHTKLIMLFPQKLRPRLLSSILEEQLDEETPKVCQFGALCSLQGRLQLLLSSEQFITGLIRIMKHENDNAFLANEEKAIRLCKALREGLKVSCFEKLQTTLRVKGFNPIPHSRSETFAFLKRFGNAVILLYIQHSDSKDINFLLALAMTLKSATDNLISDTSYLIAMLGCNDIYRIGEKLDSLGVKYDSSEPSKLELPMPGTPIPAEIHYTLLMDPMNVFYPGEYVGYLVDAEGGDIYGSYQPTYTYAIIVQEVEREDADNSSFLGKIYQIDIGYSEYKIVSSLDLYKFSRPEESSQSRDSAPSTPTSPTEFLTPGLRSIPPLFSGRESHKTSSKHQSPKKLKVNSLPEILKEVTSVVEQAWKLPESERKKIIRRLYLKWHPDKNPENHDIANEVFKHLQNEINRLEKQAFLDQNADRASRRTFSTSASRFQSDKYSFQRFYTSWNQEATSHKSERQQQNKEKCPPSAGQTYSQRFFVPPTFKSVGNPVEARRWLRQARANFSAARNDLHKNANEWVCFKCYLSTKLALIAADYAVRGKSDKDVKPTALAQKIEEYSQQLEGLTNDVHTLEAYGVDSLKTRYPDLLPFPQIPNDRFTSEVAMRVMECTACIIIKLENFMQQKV

Compound: ClCC(=O)N[C@H]1CCCc2ccccc12
Assay: log2 mean competition ratio of IA-DTB cysteine labelling (DMSO/compound) (log2 ratio); higher = stronger cysteine engagement by compound
Conditions: 50 µM; treatment time: 4 h; cell line lysate: HEK293T
Protocol: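 IA-DTB competitive cysteine chemoproteomics in HEK293T RIPA lysate. Lysates were treated with compound 29 or 30 at 50 or 200 µM for 4 h, then IA-DTB (500 µM, 1 h), trypsin-digested, NeutrAvidin-enriched and analysed by diaPASEF. Competition ratio = intensity DMSO / intensity compound (n=4 treated, n=64 DMSO); binding: mean log2 CR ≥ 1 and p ≤ 0.05 plus QC filters. Target is the cysteine site.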

Target | log2 mean competition ratio
RRAS C70 (UniProt P10301) | -0.484
RUFY1 C184 (UniProt Q96T51) | -0.17
RPAP1 C618 (UniProt Q9BWH6) | 0.366
RPL18A C22 (UniProt Q02543) | 0.503
RPS6KA3 C436 (UniProt P51812) | 0.0455
RPL36A;RPL36AL C88;(C88) | 0.162
RNF113A C202 (UniProt O15541) | -0.286
RNF7 C61 (UniProt Q9UBF6) | 0.66
RRM1 C779 (UniProt P23921) | -0.249
RND3 C34 | -0.211
RPRD2 C222 (UniProt Q5VT52) | -0.246
RPA1 C503 (UniProt P27694) | -0.4
RPL3 C336 (UniProt P39023) | 0.243
RPAP2 C288 (UniProt Q8IXW5) | -0.00621
RNF169 C28 (UniProt Q8NCN4) | -0.0692
RRM2 C202 (UniProt P31350) | 0.191
RTKN C78 (UniProt Q9BST9) | 0.0701
RRAS2 C183 (UniProt P62070) | -0.499
RTCA C63 (UniProt O00442) | 0.155
SACS C2182 (UniProt Q9NZJ4) | 0.0213

Same assay, conditions: 200 µM; treatment time: 4 h; cell line lysate: HEK293T

Target | log2 mean competition ratio
RRAS C70 (UniProt P10301) | -0.0496
RUFY1 C184 (UniProt Q96T51) | -0.0846
RPAP1 C618 (UniProt Q9BWH6) | 0.414
RPL18A C22 (UniProt Q02543) | -0.161
RPS6KA3 C436 (UniProt P51812) | -0.16
RPL36A;RPL36AL C88;(C88) | -0.0501
RNF113A C202 (UniProt O15541) | 0.0103
RNF7 C61 (UniProt Q9UBF6) | 0.24
RRM1 C779 (UniProt P23921) | 0.0761
RND3 C34 | 0.267
RPRD2 C222 (UniProt Q5VT52) | 0.156
RPA1 C503 (UniProt P27694) | -0.191
RPL3 C336 (UniProt P39023) | -0.414
RPAP2 C288 (UniProt Q8IXW5) | 0.183
RNF169 C28 (UniProt Q8NCN4) | 0.151
RRM2 C202 (UniProt P31350) | -0.1
RTKN C78 (UniProt Q9BST9) | 0.00321
RRAS2 C183 (UniProt P62070) | -0.0729
RTCA C63 (UniProt O00442) | -0.179
SACS C2182 (UniProt Q9NZJ4) | -0.31
